The record followed here is PubChem BioAssay AID2685 (National Center for Advancing Translational Sciences (NCATS), 2010).

The other results are listed elsewhere or left out. Shown are side measurements of this screen, not its main read-out; they come without a call. Most of these compounds were active or inconclusive in the main read-out, so they are no random draw. Potencies come from curve fits of mixed quality, noted in brackets.

By AC50 is commonly meant the midpoint of the concentration-response curve, whichever way the signal moves.

A short description of the assay: qHTS Assay for Lipid Storage Modulators in Drosophila S3 Cells.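 On cell number change: cells counted by Cell Tracker Red CMTPX staining in the red channel.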 The note with it: BODIPY lipid droplet fluorescence, 18-24 h; for cell number change: measured here: cell count max response, cells fed with added oleic acid. The method in brief: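 Drosophila S3 cells loaded with oleic acid (400 uM, as added) and compounds at several concentrations; lipid droplets imaged by 488-nm laser-scanning cytometry, 500–530 nm intensity and object ratio to cell channel. Percent activity normalized to 20 uM Triacsin C.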
In general terms: Quantitative high-throughput screening tests each substance at several concentrations.

The mark [1] stands for this setting: measured here: lipid fluorescence (Fed channel) AC50, cells fed with added oleic acid.
Where [2] appears, read: measured here: cell number channel AC50, cells fed with added oleic acid.

As for `COc1ccc(OC)c(N(CC(=O)Nc2cccc(C(F)(F)F)c2)S(C)(=O)=O)c1`, under setting [1], the concentration at half-maximal activity (AC50) is 23.1 µM [rising, single point].
As for `Cc1ccc(C)c(S(=O)(=O)N2CCCC2CNC(=O)C(=O)NCCc2ccco2)c1` (centres undefined), the cell number change came to 17.2%. The AC50 under setting [1] is 29.1 µM [rising, single point].
`Cc1cccc(C(=O)NNC(=O)CCC(=O)Nc2cccc(Cl)c2C)c1`: the cell number change came out at 11.8%. For the same molecule, the AC50 under setting [1] was 0.651 µM [rising, single point].
`O=C(CCN1C(=O)C2CC=CCC2C1=O)Nc1nccs1` (centres undefined): the cell number change is -10.5%. The AC50 under setting [1] is 29.1 µM [rising, single point].
For the molecule `COc1ccc(C(=O)OCc2nnc(-c3ccccc3)o2)cc1S(=O)(=O)N1CCOCC1`, the cell number change was -51.8%. Besides, the AC50 under setting [2] is 16.4 µM [falling, single point].
For `COc1cc(C(=O)OCCCN2CCOCC2)ccc1O`, the cell number change was determined as 10.5%.
Regarding `Cc1ccc(C)c(-n2nnnc2SCC(=O)c2c(N)n(C)c(=O)n(C)c2=O)c1`, the cell number change is -95.8%. Moreover, the AC50 under setting [2] is 20.6 µM [falling, single point]. Further, the AC50 under setting [1] is 20.6 µM [falling, single point].
As for `O=C(CSc1nnc(Nc2ccccc2F)s1)NC(=O)CN1CCCC1=O`, the cell number change was -51.4%. Besides, the AC50 under setting [2] is 0.0058 µM [falling, full curve]. In addition, under setting [1], the AC50 is 0.0116 µM [falling, full curve].
For the molecule `CCSc1nnc(NC(=O)NC(C)(C(F)(F)F)C(F)(F)F)s1`, the cell number change was -47.2%. The AC50 under setting [2] is 32.6 µM [falling, partial curve]. The AC50 under setting [1] was 25.9 µM [falling, partial curve, poor fit].
Take `O=C(Cc1ccc(Br)cc1)NC1CCCc2ccccc21` (centres undefined): the cell number change was -16.7%.
In the case of `CC12CC3CC(C)(C1)CC(CN)(C3)C2`, the AC50 under setting [2] was 0.103 µM [rising, full curve, poor fit].
Consider `Cn1nccc1NC(=O)Nc1cccc(Cl)c1Cl`, for which the cell number change came out at 36.1%. Under setting [2], the AC50 was 11.6 µM [rising, partial curve, poor fit].
For the molecule `O=C1CCC([N+](=O)[O-])C(c2cccc([N+](=O)[O-])c2)N1` (centres undefined), the AC50 under setting [1] is 0.291 µM [rising, full curve, poor fit].
`CCCc1cc(=O)oc2c3c(cc(OCC(=O)NCc4ccncc4)c12)OC(C)(C)CC3`: the cell number change stood at 8.74%. Moreover, the AC50 under setting [1] is 16.4 µM [falling, single point].
On to `O=C1c2ccccc2C(=O)N1c1cccnc1`, for which the AC50 under setting [1] is 0.00461 µM [falling, full curve, poor fit].
As to `CN(C)S(=O)(=O)c1ccc(N2CCCC2)c(C(=O)Nc2ccccc2Br)c1`, the cell number change is -11.4%.
`COc1ccc2c(c1)CCc1c(C(=O)Nc3ccc(OC)c(OC)c3)noc1-2`: the cell number change came out at 16.6%. Moreover, the AC50 under setting [1] is 0.00461 µM [rising, full curve, poor fit].
As to `COc1ccc(S(=O)(=O)N2CCC(C(N)=O)CC2)c2ccccc12`, the cell number change is -0.326%. Under setting [1], the AC50 was 3.66 µM [falling, full curve].
For the molecule `CC1CC(C)CN(c2ccc([N+](=O)[O-])nc2)C1` (centres undefined), the cell number change was found to be 31%. For the same molecule, the AC50 under setting [2] is 9.2 µM [rising, partial curve, poor fit].
Regarding `CCN(CC)c1ccc(/C=N/Nc2nc(C)cc(=O)[nH]2)c(O)c1`, the cell number change was -6.03%. Moreover, under setting [1], the AC50 was 29.1 µM [falling, partial curve].
As to `O=C(NCCc1ccccc1)c1oc2ccccc2c1COc1ccccc1`, the cell number change was -17%. Further, the AC50 under setting [1] is 16.4 µM [falling, partial curve, poor fit].
As to `Fc1ccc(CN(Cc2ccccc2)C(c2cccs2)c2nnnn2C2CCCCC2)cc1` (centres undefined), the cell number change was -19.2%. In addition, the AC50 under setting [1] was 18.4 µM [rising, single point].
For `COc1ccc(C(=O)NC(C)CCc2ccccc2)c(OC)c1` (centres undefined), the cell number change is -0.12%. Also, the AC50 under setting [1] was 0.0651 µM [falling, full curve, poor fit].
As for `CCOC(=O)CC1CCCCN1C(=O)c1cc(COc2cccc3cnccc23)on1` (centres undefined), the cell number change was -23.5%. Further, the AC50 under setting [2] is 0.731 µM [falling, full curve, poor fit]. In addition, the half-maximal activity concentration (AC50) under setting [1] is 2.31 µM [falling, partial curve].
For `CCN(CC)S(=O)(=O)c1ccc2c(c1)nc(CCC(=O)Nc1ccc3c(c1)OCO3)n2CC`, the cell number change was 17.5%. The AC50 under setting [1] is 0.0411 µM [rising, full curve].
With `COc1ccc(C)cc1Nc1nc(-c2c[nH]c3ccccc23)cs1`, the cell number change was 15%. The AC50 under setting [1] is 23.1 µM [rising, partial curve].
Consider `CCOC(=O)c1sc(=NC(=O)c2ccc(F)cc2)n(C)c1C`, for which the cell number change is -0.295%.
The same measure, in the same setting: under `CCOc1ccc(N2CC(C(=O)Nc3cc(OCC)c(N4CCOCC4)cc3OCC)CC2=O)cc1` (centres undefined) stands 23%.
In the case of `CCN(CC)CCCNC(=O)c1cc(-c2cccc(Cl)c2)on1`, the cell number change is -16.7%. Also, the AC50 under setting [1] was 0.13 µM [falling, full curve, poor fit].
Take `CN1CCN(c2sc(S(C)(=O)=O)nc2S(=O)(=O)c2ccc(Cl)cc2)CC1`: the cell number change is -39.4%. In addition, under setting [2], the AC50 is 25.9 µM [falling, single point].
With `CO/N=C/C(C(C)=O)C(=O)Nc1ccc(Cl)cc1Cl` (centres undefined), the cell number change is -25.5%. Under setting [2], the AC50 is 4.11 µM [falling, full curve, poor fit].
Consider `Cc1ccc(NC(=S)NNC(=O)C2CC2c2ccc(C)cc2)cc1` (centres undefined), for which the cell number change was -25.5%. Further, under setting [1], the AC50 was 29.1 µM [falling, single point].
For `CSc1nc(C)cc(C)c1S(=O)(=O)c1ccccc1C`, the cell number change was determined as 9.49%. Further, the AC50 under setting [1] is 29.1 µM [falling, single point].
For `Cc1c2cnn(CC(=O)NCCCN3CC(C)CC(C)C3)c(=O)c2c(C)n1Cc1ccccc1Cl` (centres undefined), the cell number change stood at 40.1%. In addition, the AC50 under setting [2] was 0.0058 µM [rising, full curve, poor fit].
`CC(=NCc1ccccc1)C1=C(O)COC1=O`: the cell number change is -9%. In addition, the AC50 under setting [1] was 9.2 µM [falling, partial curve, poor fit].
Turning to `CCOC(=O)c1cn2cccnc2n1`, the cell number change came out at 37.5%. Besides, the AC50 under setting [2] is 4.11 µM [rising, single point]. Besides, the AC50 under setting [1] is 0.58 µM [falling, full curve].
Take `COc1ccc(CCN2CC(C(=O)NCc3ccc(F)cc3)CC2=O)cc1OC` (centres undefined): the cell number change was -14.4%.
In the case of `O=C(Nc1ncccc1Cl)c1cccc(F)c1`, the cell number change was -0.527%. Besides, the AC50 under setting [1] was 0.231 µM [falling, full curve].
As for `CC1=C(C(=O)Nc2ccccn2)C(c2ccc(Br)cc2)n2ncnc2N1` (centres undefined), the cell number change is 7.03%. Besides, the AC50 under setting [2] is 0.517 µM [falling, single point]. In addition, the concentration at half-maximal activity (AC50) under setting [1] is 11.6 µM [rising, single point].
Turning to `N=C1/C(=C\c2coc3ccc(O)cc3c2=O)C(=O)N=C2SC=CN12`, the cell number change is -67%. The AC50 under setting [2] was 29.1 µM [falling, single point]. Further, under setting [1], the AC50 is 29.1 µM [falling, single point].
As for `COc1ccccc1NC(=O)CSc1nncn1-c1cccnc1`, the cell number change amounted to 7.15%. Besides, under setting [1], the AC50 is 0.00651 µM [rising, full curve, poor fit].
Take `COc1ccc(CCNC(=O)C2CCCN(c3nc4ccccc4s3)C2)cc1OC` (centres undefined): the cell number change worked out at 10.9%.
On to `COc1ccc(C(=O)NC(C)c2ccc(-n3ccnc3)cc2)cc1[N+](=O)[O-]` (centres undefined), for which the cell number change was 44.4%. The half-maximal activity concentration (AC50) under setting [2] was 25.9 µM [rising, single point].
For `O=C1CCC(C(=O)OCC(=O)C23CC4CC(CC(C4)C2)C3)N1` (centres undefined), the cell number change is -2.45%. For the same molecule, the AC50 under setting [1] is 0.259 µM [falling, partial curve, poor fit].
For the molecule `CCOC(=O)Cn1ncc2c3ccccc3n(CC(=O)OCC)c2c1=O`, the cell number change was -15.1%. Under setting [2], the concentration at half-maximal activity (AC50) is 0.092 µM [falling, full curve, poor fit]. In addition, the AC50 under setting [1] was 0.146 µM [falling, full curve, poor fit].
Turning to `COCCN(CC(=O)Nc1cccc(C)c1C)C(=O)Cc1sc(C)nc1-c1ccc(F)cc1`, the cell number change is -31.5%. The AC50 under setting [2] was 32.6 µM [falling, single point]. Besides, under setting [1], the half-maximal activity concentration (AC50) was 2.91 µM [rising, partial curve, poor fit].
`COc1ccc(CN2CCNC(=O)C2CC(=O)NCCN2CCCCC2=O)c(F)c1` (centres undefined): the cell number change is 17.1%. Moreover, the AC50 under setting [1] is 20.6 µM [falling, single point].
`Cc1ccc(NC(=O)CN2C(=O)CCSc3ccc(S(=O)(=O)N4CCCC4)cc32)cc1C`: the cell number change came to 11.6%. In addition, the concentration at half-maximal activity (AC50) under setting [1] is 32.6 µM [rising, single point].
As to `O=C(NCC(=O)N1CCN(c2ccccc2O)CC1)c1ccccc1`, the cell number change was -31.4%.
With `COCCNS(=O)(=O)c1ccc2c(c1)oc(=O)c1cc(S(=O)(=O)NCCOC)ccc12`, the cell number change was -33.5%. Also, the AC50 under setting [2] is 0.92 µM [falling, full curve, poor fit]. The concentration at half-maximal activity (AC50) under setting [1] was 0.231 µM [falling, full curve, poor fit].
Turning to `CCOc1cccc(/C=N/NS(=O)(=O)c2ccc(C)c([N+](=O)[O-])c2)c1O`, the AC50 runs as follows: under setting [2], 0.517 µM [rising, single point]; under setting [1], 0.58 µM [rising, single point].
For the molecule `Cc1cc(C(F)(F)F)n(-c2nc(C(=O)NNS(=O)(=O)c3ccccc3)cs2)n1`, the cell number change was found to be 43.6%. In addition, the AC50 under setting [2] is 29.1 µM [rising, single point]. Moreover, the AC50 under setting [1] was 29.1 µM [rising, single point].
As to `CCc1ccccc1NC(=O)N[C@@H](C)C(=O)OC`, the cell number change was -19.6%. Also, the AC50 under setting [1] is 0.058 µM [falling, full curve, poor fit].
`c1cc2c(cc1C1=NNC(=NC3CC3)SC1)OCCO2`: under setting [2], the AC50 was 0.411 µM [rising, full curve].
With `C[C@H](NC(=O)c1[nH]cnc1C(=O)Nc1nccs1)c1ccccc1`, the cell number change is -10.6%. The AC50 under setting [1] was 29.1 µM [rising, partial curve, poor fit].
`COC(=O)[C@@H]1C[C@@]2(O)[C@H](O)[C@H](O)[C@H](O)C[C@H]2N1Cc1ccc(C(F)(F)F)cc1`: the cell number change came to 0.327%. Further, the AC50 under setting [1] is 6.51 µM [falling, single point].
In the case of `CCCOc1ccc(C2C3=C(Nc4nc(N)[nH]c(=O)c42)c2ccccc2C3=O)cc1` (centres undefined), the AC50 under setting [1] is 0.206 µM [rising, full curve, poor fit].
Consider `COc1cccc(C(=O)Nc2ccc(NC(=O)C(C)(C)C)cn2)c1`, for which the cell number change is 147%. Besides, under setting [2], the AC50 is 8.2 µM [rising, partial curve]. In addition, under setting [1], the AC50 is 7.31 µM [rising, partial curve].
